These are yes or no findings as the source states them, for the method shown. For part of these data: Binding seen in cells or lysates may run through a third protein. Some entries that bind do so weakly or less than the wild type. Where a sequence is shown, tags or fusion partners need not be part of it. Blank lines part the entries; values can stand above or below the molecule they belong to.
What was measured:
His-SPECC1LΔCHD = target: T1, His-SPECC1LΔCHD (UniProt Q69YQ0); assay: far-Western, overlay or dot blot
T1 sequence: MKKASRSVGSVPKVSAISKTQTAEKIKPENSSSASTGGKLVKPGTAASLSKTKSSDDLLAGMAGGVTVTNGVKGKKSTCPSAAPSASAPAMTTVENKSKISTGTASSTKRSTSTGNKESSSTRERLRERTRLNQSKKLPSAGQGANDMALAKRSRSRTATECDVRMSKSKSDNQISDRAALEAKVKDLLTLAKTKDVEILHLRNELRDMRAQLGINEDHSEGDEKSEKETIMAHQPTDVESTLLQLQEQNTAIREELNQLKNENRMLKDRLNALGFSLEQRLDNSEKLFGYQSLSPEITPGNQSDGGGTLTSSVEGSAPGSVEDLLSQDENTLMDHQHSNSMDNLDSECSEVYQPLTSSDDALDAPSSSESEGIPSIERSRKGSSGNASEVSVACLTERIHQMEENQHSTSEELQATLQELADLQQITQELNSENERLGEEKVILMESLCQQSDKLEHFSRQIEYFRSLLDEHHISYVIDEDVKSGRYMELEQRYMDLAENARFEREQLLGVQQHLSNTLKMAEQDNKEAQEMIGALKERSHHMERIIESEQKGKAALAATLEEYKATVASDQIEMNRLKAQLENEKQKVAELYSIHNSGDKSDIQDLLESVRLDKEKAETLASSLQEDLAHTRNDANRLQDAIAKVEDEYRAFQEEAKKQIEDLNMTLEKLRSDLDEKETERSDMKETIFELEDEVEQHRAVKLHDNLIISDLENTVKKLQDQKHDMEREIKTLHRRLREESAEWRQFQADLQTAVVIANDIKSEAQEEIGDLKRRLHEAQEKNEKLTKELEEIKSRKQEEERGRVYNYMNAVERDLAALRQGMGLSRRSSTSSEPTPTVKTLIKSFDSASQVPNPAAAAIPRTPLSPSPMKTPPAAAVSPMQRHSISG

By UniProt entry, the sequences of proteins in these tests, tags left out. Residues count along the entry.
UniProt O14974, residues 654-1030: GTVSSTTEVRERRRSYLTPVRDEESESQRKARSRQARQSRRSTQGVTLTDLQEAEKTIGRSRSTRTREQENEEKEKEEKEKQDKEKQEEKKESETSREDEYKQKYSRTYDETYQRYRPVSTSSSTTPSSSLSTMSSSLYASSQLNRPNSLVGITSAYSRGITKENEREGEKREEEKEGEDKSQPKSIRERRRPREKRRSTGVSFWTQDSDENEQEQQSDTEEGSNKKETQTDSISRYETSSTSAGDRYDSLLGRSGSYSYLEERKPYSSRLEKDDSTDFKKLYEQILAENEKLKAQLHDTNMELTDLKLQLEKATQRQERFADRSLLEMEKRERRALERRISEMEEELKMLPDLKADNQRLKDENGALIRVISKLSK

GST-MYPT1(CD) (human) = GST-MYPT1(CD) (human) (UniProt O14974); assay: pull-down
GFP-MYPT1(CD) (human) = GFP-MYPT1(CD) (human) (UniProt O14974); assay: co-IP

binding (His-SPECC1LΔCHD): binds
Molecule: GST-MYPT1(CD) (from UniProt O14974 654-1030) (domain or fragment)

binding (GST-MYPT1(CD) (human)): binds
B1: His-SPECC1LΔCHD (domain or fragment, UniProt Q69YQ0 1-890)
chain: T1 sequence

binding (GFP-MYPT1(CD) (human)): binds
B2: mCherry-tagged SPECC1L-CT (domain or fragment, UniProt Q69YQ0 462-1117)
chain: QIEYFRSLLDEHHISYVIDEDVKSGRYMELEQRYMDLAENARFEREQLLGVQQHLSNTLKMAEQDNKEAQEMIGALKERSHHMERIIESEQKGKAALAATLEEYKATVASDQIEMNRLKAQLENEKQKVAELYSIHNSGDKSDIQDLLESVRLDKEKAETLASSLQEDLAHTRNDANRLQDAIAKVEDEYRAFQEEAKKQIEDLNMTLEKLRSDLDEKETERSDMKETIFELEDEVEQHRAVKLHDNLIISDLENTVKKLQDQKHDMEREIKTLHRRLREESAEWRQFQADLQTAVVIANDIKSEAQEEIGDLKRRLHEAQEKNEKLTKELEEIKSRKQEEERGRVYNYMNAVERDLAALRQGMGLSRRSSTSSEPTPTVKTLIKSFDSASQVPNPAAAAIPRTPLSPSPMKTPPAAAVSPMQRHSISGPISTSKPLTALSDKRPNYGEIPVQEHLLRTSSASRPASLPRVPAMESAKTLSVSRRSSEEVKRDISAQEGASPASLMAMGTTSPQLSLSSSPTASVTPTTRSRIREERKDPLSALAREYGGSKRNALLKWCQKKTEGYQNIDITNFSSSWNDGLAFCALLHTYLPAHIPYQELNSQDKRRNFMLAFQAAESVGIKSTLDINEMVRTERPDWQNVMLYVTAIYKYFET

From paper doi:10.1101/2022.09.09.507377
